The experiment addresses p21-activated kinase 4 (PAK4) (human (endogenous in KYSE150 and KYSE450)) (UniProt O96013). Kind of experiment: co-IP; endogenous PAK4 precipitated with PAK4 antibody and protein A/G agarose beads from KYSE150 and KYSE450 lysates (50 mM Tris-HCl pH 8.0, 0.5% NP40, 150 mM NaCl, 4 °C overnight); cells treated with 5 μM Nuplazid or DMSO for 24 h; western blot for MAPK1 / p-MAPK1 T185/Y187.

Amino acid sequences for entries named in this document (tags omitted).
UniProt O96013: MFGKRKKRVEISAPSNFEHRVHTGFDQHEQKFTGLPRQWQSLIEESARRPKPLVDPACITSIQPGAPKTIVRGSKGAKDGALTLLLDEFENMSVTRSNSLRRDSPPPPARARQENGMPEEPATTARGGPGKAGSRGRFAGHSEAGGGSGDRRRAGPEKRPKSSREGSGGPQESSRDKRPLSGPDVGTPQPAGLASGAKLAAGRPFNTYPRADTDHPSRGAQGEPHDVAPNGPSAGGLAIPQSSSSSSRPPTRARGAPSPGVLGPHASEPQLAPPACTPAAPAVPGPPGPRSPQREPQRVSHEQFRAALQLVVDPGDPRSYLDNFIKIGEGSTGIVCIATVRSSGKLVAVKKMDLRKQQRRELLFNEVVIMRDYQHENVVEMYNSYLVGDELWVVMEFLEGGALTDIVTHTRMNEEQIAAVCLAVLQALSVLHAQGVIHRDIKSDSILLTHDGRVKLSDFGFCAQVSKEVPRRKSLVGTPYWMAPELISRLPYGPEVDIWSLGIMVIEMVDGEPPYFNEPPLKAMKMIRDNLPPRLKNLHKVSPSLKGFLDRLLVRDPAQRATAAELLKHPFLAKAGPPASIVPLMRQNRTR
UniProt P28482: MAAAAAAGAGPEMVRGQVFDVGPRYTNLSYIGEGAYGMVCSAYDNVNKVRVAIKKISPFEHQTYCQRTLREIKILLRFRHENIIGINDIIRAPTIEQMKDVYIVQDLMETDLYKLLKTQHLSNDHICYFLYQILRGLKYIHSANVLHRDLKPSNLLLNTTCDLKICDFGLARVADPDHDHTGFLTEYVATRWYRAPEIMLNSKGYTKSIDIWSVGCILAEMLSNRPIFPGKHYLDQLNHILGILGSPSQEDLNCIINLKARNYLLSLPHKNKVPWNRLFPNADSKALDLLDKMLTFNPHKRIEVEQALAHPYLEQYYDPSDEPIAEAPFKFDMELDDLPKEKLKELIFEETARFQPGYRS

No constants are given. Whether binding was seen depends on the method and setting. In cells and extracts the contact can be indirect. Some binding calls cover weakened binding; strength is not graded here.

With “MAPK1 (from UniProt P28482 1-360) (enzyme)”, the binding entry is “binds”.

(Values after article PMC8980085.)
